Source: paper PMC10173277
No constants are given. Whether binding was seen depends on the method and setting. Some results given as binding are weak or reduced against the parent protein; the word gives no strength. Tags and fused reporters may be left off the sequences shown.

The chains behind the UniProt entries cited, without tags or fusion partners. Where a name states a change or a piece, a line headed by the entry shows the natural chain unless it says otherwise.
UniProt P02453: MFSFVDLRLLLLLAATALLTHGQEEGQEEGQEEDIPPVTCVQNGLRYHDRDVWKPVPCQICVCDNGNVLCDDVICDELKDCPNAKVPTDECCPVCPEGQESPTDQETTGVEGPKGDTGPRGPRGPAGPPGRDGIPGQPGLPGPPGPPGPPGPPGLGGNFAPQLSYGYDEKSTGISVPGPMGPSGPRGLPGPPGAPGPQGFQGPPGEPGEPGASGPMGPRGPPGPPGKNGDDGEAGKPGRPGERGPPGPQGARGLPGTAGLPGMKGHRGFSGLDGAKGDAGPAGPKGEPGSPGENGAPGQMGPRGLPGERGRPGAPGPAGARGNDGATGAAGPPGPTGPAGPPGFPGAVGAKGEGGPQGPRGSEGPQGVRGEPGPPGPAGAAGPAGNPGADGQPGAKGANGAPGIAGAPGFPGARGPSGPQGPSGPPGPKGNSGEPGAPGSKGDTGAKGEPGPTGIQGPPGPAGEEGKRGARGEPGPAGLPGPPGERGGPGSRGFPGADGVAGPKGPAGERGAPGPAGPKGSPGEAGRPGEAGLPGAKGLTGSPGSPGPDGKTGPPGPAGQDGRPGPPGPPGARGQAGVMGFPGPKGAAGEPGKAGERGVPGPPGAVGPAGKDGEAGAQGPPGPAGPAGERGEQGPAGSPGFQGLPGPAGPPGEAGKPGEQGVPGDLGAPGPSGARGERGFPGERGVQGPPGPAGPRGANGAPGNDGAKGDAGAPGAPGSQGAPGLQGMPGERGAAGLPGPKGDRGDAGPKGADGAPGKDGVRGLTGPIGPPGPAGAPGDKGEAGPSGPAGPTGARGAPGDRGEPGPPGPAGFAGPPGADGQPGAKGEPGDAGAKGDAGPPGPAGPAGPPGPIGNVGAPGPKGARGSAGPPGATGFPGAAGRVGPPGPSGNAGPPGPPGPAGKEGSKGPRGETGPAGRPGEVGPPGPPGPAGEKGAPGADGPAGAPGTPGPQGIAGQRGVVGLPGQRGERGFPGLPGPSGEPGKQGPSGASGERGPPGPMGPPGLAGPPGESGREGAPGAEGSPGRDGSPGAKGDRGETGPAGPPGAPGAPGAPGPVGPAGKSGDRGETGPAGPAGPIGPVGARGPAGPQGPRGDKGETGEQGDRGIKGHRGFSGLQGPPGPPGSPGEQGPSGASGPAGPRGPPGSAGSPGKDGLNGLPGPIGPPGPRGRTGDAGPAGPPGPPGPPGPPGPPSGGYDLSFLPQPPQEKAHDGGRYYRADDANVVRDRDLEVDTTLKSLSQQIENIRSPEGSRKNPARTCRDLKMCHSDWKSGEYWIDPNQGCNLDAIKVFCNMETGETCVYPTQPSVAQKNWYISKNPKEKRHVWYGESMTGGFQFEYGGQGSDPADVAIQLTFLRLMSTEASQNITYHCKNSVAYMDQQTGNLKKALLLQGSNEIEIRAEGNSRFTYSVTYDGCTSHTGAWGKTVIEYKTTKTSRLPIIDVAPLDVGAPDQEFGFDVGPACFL
UniProt P02465: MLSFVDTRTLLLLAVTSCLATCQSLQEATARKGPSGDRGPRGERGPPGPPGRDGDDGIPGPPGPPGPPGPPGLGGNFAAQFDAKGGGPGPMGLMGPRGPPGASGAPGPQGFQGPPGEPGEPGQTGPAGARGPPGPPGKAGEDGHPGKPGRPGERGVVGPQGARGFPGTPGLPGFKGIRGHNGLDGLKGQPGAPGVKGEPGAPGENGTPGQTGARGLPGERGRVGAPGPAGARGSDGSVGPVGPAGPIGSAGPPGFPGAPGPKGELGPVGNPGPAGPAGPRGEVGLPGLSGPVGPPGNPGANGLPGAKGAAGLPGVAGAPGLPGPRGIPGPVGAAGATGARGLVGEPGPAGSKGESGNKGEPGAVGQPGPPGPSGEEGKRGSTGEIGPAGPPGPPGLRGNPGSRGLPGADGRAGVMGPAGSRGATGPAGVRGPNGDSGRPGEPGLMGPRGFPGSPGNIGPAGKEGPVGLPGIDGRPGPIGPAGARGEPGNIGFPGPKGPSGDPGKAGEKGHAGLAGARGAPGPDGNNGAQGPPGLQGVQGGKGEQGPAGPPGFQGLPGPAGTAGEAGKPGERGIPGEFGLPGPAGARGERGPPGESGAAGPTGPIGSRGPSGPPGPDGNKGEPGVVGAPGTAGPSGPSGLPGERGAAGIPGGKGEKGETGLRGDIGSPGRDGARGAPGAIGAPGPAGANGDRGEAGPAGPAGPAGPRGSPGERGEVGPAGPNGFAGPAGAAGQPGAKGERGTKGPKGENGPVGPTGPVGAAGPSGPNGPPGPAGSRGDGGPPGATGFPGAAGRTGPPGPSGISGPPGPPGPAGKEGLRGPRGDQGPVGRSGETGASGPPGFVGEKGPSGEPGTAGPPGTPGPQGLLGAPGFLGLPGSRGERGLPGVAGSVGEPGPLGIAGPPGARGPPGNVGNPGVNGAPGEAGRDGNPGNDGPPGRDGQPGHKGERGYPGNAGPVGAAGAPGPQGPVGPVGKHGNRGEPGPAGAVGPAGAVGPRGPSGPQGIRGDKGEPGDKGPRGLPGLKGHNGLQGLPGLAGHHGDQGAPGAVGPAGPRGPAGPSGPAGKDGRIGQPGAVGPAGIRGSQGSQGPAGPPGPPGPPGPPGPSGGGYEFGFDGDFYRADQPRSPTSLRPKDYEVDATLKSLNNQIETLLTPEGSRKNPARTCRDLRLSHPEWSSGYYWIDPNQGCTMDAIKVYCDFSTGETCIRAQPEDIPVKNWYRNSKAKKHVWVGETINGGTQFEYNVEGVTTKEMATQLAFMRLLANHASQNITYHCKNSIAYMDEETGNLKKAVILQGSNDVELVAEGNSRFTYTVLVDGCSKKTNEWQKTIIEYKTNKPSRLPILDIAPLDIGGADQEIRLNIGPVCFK

Target: collagen type I, bovine tendon, as absorbable collagen sponge (ACS) (bovine) (UniProt P02453+P02465)
Test: fluorescence microscopy of the sponge; ACS inside polyimide implant tubes submerged in Dylight 488 rhBMP-2 for 1 h, rinsed with water to remove unbound rhBMP-2; both purified

B1: recombinant human bone morphogenic protein 2, tagged with Dylight 488 (ligand, UniProt P12643 283-396)
chain: QAKHKQRKRLKSSCKRHPLYVDFSDVGWNDWIVAPPGYHAFYCHGECPFPLADHLNSTNHAIVQTLVNSVNSKIPKACCVPTELSAISMLYLDENEKVVLKNYQDMVVEGCGCR
modifications: Dylight 488 (amino reactive NHS ester dye)
  binding: binds
